Experimental data published in article doi:10.1101/2023.10.13.562179.
These are yes or no findings as the source states them, for the method shown. Binding seen in cells or lysates may run through a third protein. Some entries that bind do so weakly or less than the wild type. For part of these data: Sequences can lack the tags named with a protein.

Sequences of proteins named here, by UniProt entry; tags and fusion partners are left off.
UniProt Q60598: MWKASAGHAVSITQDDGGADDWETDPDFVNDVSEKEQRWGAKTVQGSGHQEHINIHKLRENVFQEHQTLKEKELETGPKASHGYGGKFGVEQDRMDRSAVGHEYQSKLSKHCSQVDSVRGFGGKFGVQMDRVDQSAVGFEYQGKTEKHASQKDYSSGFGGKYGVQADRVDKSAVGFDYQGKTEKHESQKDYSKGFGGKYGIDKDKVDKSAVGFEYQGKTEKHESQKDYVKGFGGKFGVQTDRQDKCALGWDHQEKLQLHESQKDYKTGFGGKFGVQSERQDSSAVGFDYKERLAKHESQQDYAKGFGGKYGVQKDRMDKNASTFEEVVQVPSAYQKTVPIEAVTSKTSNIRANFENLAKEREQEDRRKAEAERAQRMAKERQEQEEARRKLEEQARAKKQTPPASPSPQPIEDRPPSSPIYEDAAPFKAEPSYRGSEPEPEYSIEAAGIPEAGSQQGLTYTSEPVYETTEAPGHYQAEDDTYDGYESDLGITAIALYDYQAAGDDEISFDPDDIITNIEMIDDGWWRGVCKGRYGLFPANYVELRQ

Key:
[1] = molecular target: T1, αDB1-GFP (UniProt Q9D2N4); assay: co-IP
T1 sequence: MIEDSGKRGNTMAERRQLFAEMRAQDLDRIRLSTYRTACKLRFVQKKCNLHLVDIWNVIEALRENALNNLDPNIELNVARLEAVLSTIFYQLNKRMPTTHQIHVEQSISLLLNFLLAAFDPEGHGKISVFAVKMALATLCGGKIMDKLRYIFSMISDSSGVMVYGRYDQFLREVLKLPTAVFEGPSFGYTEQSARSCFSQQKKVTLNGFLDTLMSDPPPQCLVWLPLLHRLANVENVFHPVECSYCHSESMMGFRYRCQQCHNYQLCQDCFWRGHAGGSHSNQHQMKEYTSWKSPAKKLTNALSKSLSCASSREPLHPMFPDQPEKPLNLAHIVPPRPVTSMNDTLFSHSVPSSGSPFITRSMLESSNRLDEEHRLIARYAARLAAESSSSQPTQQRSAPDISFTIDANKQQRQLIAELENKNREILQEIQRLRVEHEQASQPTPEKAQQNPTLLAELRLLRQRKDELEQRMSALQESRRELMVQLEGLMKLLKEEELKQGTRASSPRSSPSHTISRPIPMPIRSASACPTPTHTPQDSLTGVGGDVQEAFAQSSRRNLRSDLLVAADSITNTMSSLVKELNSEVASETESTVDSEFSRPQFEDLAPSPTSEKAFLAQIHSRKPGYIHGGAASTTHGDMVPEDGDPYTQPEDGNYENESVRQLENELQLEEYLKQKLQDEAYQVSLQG

[2] = molecular target: T2, αDB1-VN173 (UniProt Q9D2N4); assay: split reporter
T2 sequence: T1 sequence

[3] = molecular target: Cttn-Flag (UniProt Q60598); assay: co-IP

In the case of Cttn-Flag (from UniProt Q60598 1-546), the binding [1] is reported as “binds”.

For Cttn-VC155 (from UniProt Q60598 1-546), the binding [2] was “binds”.

B1: αDB1-GFP (protein, UniProt Q9D2N4-2 1-688)
chain: T1 sequence
In the case of B1, the binding [3] is reported as “binds”.
